Reference: patent EP0565674B1, “METHOD FOR MEMORY ENHANCEMENT AND QUALITY OF LIFE IMPROVEMENT” (CITY OF HOPE, priority 1991, dated 1993)

Experiments:
[1] = Contents of steroids in regions of human brain (Lanthier et al.)
[2] = means of 4 to 5 brains, both sexes, cited from earlier work

Row | Structure (SMILES) | ratio to pregnenolone ([1]; Amygdala) | ratio to pregnenolone ([1]; Frontal cortex) | ratio to pregnenolone ([1]; Hippocampus) | ratio to pregnenolone ([1]; Hypothalamus) | ratio to pregnenolone ([1]; Parietal cortex) | ratio to pregnenolone ([1]; Temporal cortex) | content in human brain ([2]; Amygdala) [ng/100 gm] | content in human brain ([2]; Frontal cortex) [ng/100 gm] | content in human brain ([2]; Hippocampus) [ng/100 gm] | content in human brain ([2]; Hypothalamus) [ng/100 gm] | content in human brain ([2]; Parietal cortex) [ng/100 gm] | content in human brain ([2]; Temporal cortex) [ng/100 gm]
1 | C[C@]12CC[C@H](OS(=O)(=O)O)CC1=CC[C@@H]1[C@@H]2CC[C@]2(C)C(=O)CC[C@@H]12 [DHEAS, dehydroepiandrosterone sulfate] | 0.15 | 0.12 | 0.12 | 0.13 | 0.07 | 0.09 | 483 | 483 | 459 | 364 | 264 | 305
2 | CC(=O)[C@H]1CC[C@H]2[C@@H]3CC=C4C[C@@H](O)CC[C@]4(C)[C@H]3CC[C@]12C [pregnenolone, 5-pregnen-3β-ol-20-one] |  |  |  |  |  |  | 3201 | 4074 | 3749 | 2786 | 3620 | 3485

Where a name gives a salt, the structure may show the parent alone. Read-outs that look alike come from different tables or passages of the source.
